# Test: Reactivity with L-methionine (1H-NMR)
# Details: 2.5 eq methionine, 9:1 v/v D2O (PBS, pH 7.4):DMSO-d6, 37 °C, within 48 h
row,SMILES,Coordination of methionine
1,CC(=O)OC[C@H]1O[C@@H](n2cc(-c3c[n+]([Pt-2]4([CH3])[n+]5cccc6ccc7ccc[n+]4c7c65)cn3C)nn2)[C@H](OC(C)=O)[C@@H](OC(C)=O)[C@@H]1OC(C)=O.O=S(=O)([O-])C(F)(F)F [4Pt-im],no sign of coordination of methionine
2,CC(=O)OC[C@H]1O[C@@H](n2cc(-c3ccc[n+]([Pt-2]4([CH3])[n+]5cccc6ccc7ccc[n+]4c7c65)c3)nn2)[C@H](OC(C)=O)[C@@H](OC(C)=O)[C@@H]1OC(C)=O.O=S(=O)([O-])C(F)(F)F [4Pt-py],no sign of coordination of methionine

# — article PMC8395886, “Square-Planar vs. Trigonal Bipyramidal Geometry in Pt(II) Complexes Containing Triazole-Based Glucose Ligands as Potential Anticancer Agents” (International Journal of Molecular Sciences, 2021)
